These results are taken from patent US20200392228A1.

Numbering of substitutions follows the chain as printed. These are yes or no findings as the source states them, for the method shown. Binding calls can cover weak binding; strength is not graded here.

B1: MAdCAM antibody Clone ID 13 of Table 6 (scFv) (scFv)
scFv: EVQLLESGGGLVQPGGSLRLSCAASGFTFDDYAMHWVRQAPGKGLEWVSYIDASGTTIYYADSVKGRFTISRDNSKNTLYLQMNSLRAEDTAVYYCAKDQAAAGYWYFDLWGRGTLVTVSSGGGGSGGGGSGGGGSGGGGSDIQMTQSPSSLSASVGDRVTITCQASQDISNYLNWYQQKPGKAPKLLIYKASTLESGVPSRFSGSGSGTDFTLTISSLQPEDFATYYCQQSYSTPITFGQGTRLEIK
B2: MAdCAM antibody Clone ID 11 of Table 6 (scFv) (scFv)
scFv: QVQLVQSGAEVKKPGASVKVSCKASGYTFTTYYMHWVRQAPGQGLEWMGGFDPEDGETIYAQKFQGRVTMTRDTSTSTVYMELSSLRSEDTAVYYCARHAVAGAVGAGYYYYGMDVWGQGTMVTVSSGGGGSGGGGSGGGGSGGGGSDIQMTQSPSSLSASVGDRVTITCRASESISNWLAWYQQKPGKAPKLLIYAASTLQSGVPSRFSGSGSGTDFTLTISSLQPEDFATYYCQQSYSVPFTFGPGTKVDIK
B3: MAdCAM antibody Clone ID 16 of Table 6 (scFv) (scFv)
scFv: EVQLLESGGGLVQPGGSLRLSCAASGFTFEDYAMHWVRQAPGKGLEWVSYLNSDGGSTSYADSVKGRFTISRDNSKNTLYLQMNSLRAEDTAVYYCAKDYCTNGVCAFDYWGQGTLVTVSSGGGGSGGGGSGGGGSGGGGSDIQMTQSPSSLSASVGDRVTITCRASQSISTYLNWYQQKPGKAPKLLIYDASNLETGVPSRFSGSGSGTDFTLTISSLQPEDFATYYCQQSYTIPITFGQGTRLEIK
B4: MAdCAM antibody Clone ID 10 of Table 6 (scFv) (scFv)
scFv: QVQLVQSGAEVKKPGASVKVSCKASGYTLTTWYMYWVRQAPGQGLEWMGWINPNRGATNYAQKFQGRVTMTRDTSTSTVYMELSSLRSEDTAVYYCAKGDLWGAMDVWGQGTLVTVSSGGGGSGGGGSGGGGSGGGGSDIQMTQSPSSLSASVGDRVTITCRASDNIGSWLAWYQQKPGKAPKLLIYAASSLQSGVPSRFSGSGSGTDFTLTISSLQPEDFATYYCQQGYSTPPTFGQGTKVEIK
B5: MAdCAM antibody Clone ID 25 of Table 6 (scFv) (scFv)
scFv: B4 scFv
B6: MAdCAM antibody Clone ID 26 of Table 6 (scFv) (scFv)
scFv: B4 scFv with L113T
B7: MAdCAM antibody Clone ID 12 of Table 6 (scFv) (scFv)
scFv: QVQLVQSGAEVKKPGASVKVSCKASGYTFTGYYMHWVRQAPGQGLEWMGWIGPNSGDTNYAQKFQGRVTMTRDTSTSTVYMELSSLRSEDTAVYYCARDLDHNWYFDLWGRGTLVTVSSGGGGSGGGGSGGGGSGGGGSDIVMTQSPLSLPVTPGEPASISCRSSQSLLHSNGYNYLDWYLQKPGQSPQLLIYSSSNRAPGVPDRFSGSGSGTDFTLKISRVEAEDVGVYYCMQALHIPLTFGGGTKVEIK
B8: MAdCAM antibody Clone ID 39 of Table 7 (IgG) (antibody, V domains shown)
VH: QVQLVQSGAEVKKPGASVKVSCKASGYTFTSYYMHWVRQAPGQGLEWMAWMNPNSGNTGYAQKFQGRVTMTRDTSTSTVYMELSSLRSEDTAVYYCARDYDFWSGSLGYWGQGTLVTVSS
VL: DIQMTQSPSSLSASVGDRVTITCRASQGISNYLAWYQQKPGKAPKLLIYAASSLQSGVPSRFSGSGSGTDFTLTISSLQPEDFATYYCQQSYSTPWTFGQGTKVEIK
B9: MAdCAM antibody Clone ID 69 of Table 7 (IgG) (antibody, V domains shown)
VH: QVQLVQSGAEVKKPGASVKVSCKASGYTFTSYYMHWVRQAPGQGLEWMGIIDPSGGSTSYAQKFQGRVTMTRDTSTSTVYMELSSLRSEDTAVYYCAREEWSSGGVGYFDYWGQGTLVTVSS
VL: B8 VL with N31S, A51T, S56T, S91T, T94I, W96I, K103R, V104L
B10: MAdCAM antibody Clone ID 56 of Table 7 (IgG) (antibody, V domains shown)
VH: EVQLVESGGGLVKPGGSLRLSCAASGFTFSSYWMSWVRQAPGKGLEWVSAIGTGGGTYYAAPVKGRFTISRDDSKNTLYLQMNSLKTEDTAVYYCAREWLVPYYGMDVWGQGTTVTVSS
VL: B8 VL with G28S, N31R, Y32W, A50G, S53N
B11: MAdCAM antibody Clone ID 43 of Table 7 (IgG) (antibody, V domains shown)
VH: QVQLVQSGAEVKKPGASVKVSCKASGYTFTSYGISWVRQAPGQGLEWMGWMHPKSGDTGLTQKFQGRVTMTRDTSTSTVYMELSSLRSEDTAVYYCARDTPYYYYGMDVWGQGTTVTVSS
VL: B8 VL with G28S, N31S, Y32W, T94V, W96I
B12: MAdCAM antibody Clone ID 17 of Table 6 (scFv) (scFv)
scFv: EVQLLESGGGLVQPGGSLRLSCAASGFTFSDSAMHWVRQAPGKGLEWVSAISGSGSTIYYADSVKGRFTISRDNSKNTLYLQMNSLRAEDTAVYYCVSDIAVAGHWYFDLWGRGTLVTVSSGGGGSGGGGSGGGGSGGGGSDIQMTQSPSSLSASVGDRVTITCRASQSISTFLNWYQQKPGKAPKLLIYAASRLEGGVPSRFSGSGSGTDFTLTISSLQPEDFATYYCQQANSFPLTFGPGTKVDIK
B13: MAdCAM antibody Clone ID 14 of Table 6 (scFv) (scFv)
scFv: QVQLVQSGAEVKKPGSSVKVSCKASGYTFTDYHIHWVRQAPGQGLEWMGGIVPRSGSTTYAQKFQGRVTITADESTSTAYMELSSLRSEDTAVYYCAKDESSGWYYFDYWGQGTLVTVSSGGGGSGGGGSGGGGSGGGGSDIVMTQSPLSLPVTPGEPASISCRSSQSLLHSNGYNYLDWYLQKPGQSPQLLIYSAYNRASGVPDRFSGSGSGTDFTLKISRVEAEDVGVYYCMQALQTPLTFGQGTKVEIK
B14: MAdCAM antibody Clone ID 54 of Table 7 (IgG) (antibody, V domains shown)
VH: QVQLVQSGAEVKKPGSSVKVSCKASGGTLSRYGVSWVRQAPGQGLEWMGGIIPIFGTTNYAQKFQGRVTITADESTSTAYMELSSLRSEDTAVYYCARDRVYYDSSGYPTWYFDLWGRGTLVTVSS
VL: EIVMTQSPATLSVSPGERATLSCRASQSVSSSYLAWYQQKPGQAPRLLIYGASTRATGIPARFSGSGSGTEFTLTISSLQSEDFAVYYCQQYGSSPITFGQGTKVEIK
B15: MAdCAM antibody Clone ID 27 of Table 6 (scFv) (scFv)
scFv: QVQLVQSGAEVKKPGASVKVSCKASGYTFTGYYIHWVRQAPGQGLEWMGWMNPNSGNTGYAQKFQGRVTMTRDTSTSTVYMELSSLRSEDTAVYYCARDPGFLGYCSGGSCYDGWFDPWGQGTLVTVSSGGGGSGGGGSGGGGSGGGGSDIQMTQSPSSLSASVGDRVTITCRASQSISSYLHWYQQKPGKAPKLLIYAASSLQSGVPSRFSGSGSGTDFTLTISSLQPEDFATYYCQQSYTAPYTFGQGTKLEIK
B16: MAdCAM antibody Clone ID 15 of Table 6 (scFv) (scFv)
scFv: QVQLVQSGAEVKKPGSSVKVSCKASGYTFTNYYMHWVRQAPGQGLEWMGGIIPIVDRVKYAQKFQGRVTITADESTSTAYMELSSLRSEDTAVYYCAKGRYTVNYYYGMDVWGQGTTVTVSSGGGGSGGGGSGGGGSGGGGSDIQMTQSPSSLSASVGDRVTITCQANQDISNYLNWYQQKPGKAPKLLIYRASKLEAGVPSRFSGSGSGTDFTLTISSLQPEDFATYYCQQSSEIPYSFGQGTKLEIK
B17: MAdCAM antibody Clone ID 66 of Table 7 (IgG) (antibody, V domains shown)
VH: QVQLVQSGAEVKKPGASVKVSCKASGYTFTGHYMHWVRQAPGQGLEWMGIINPSGGSTSYAQKFQGRVTMTRDTSTSTVYMELSSLRSEDTAVYYCARDGAWFGEEYYYGMDVWGQGTTVTVSS
VL: DIQMTQSPSSLSASVGDRVTITCRASQGISNWLAWYQQKPGKAPKLLIYDASNLETGVPSRFSGSGSGTDFTLTISSLQPEDFATYYCQQYYSFPLYTFGQGTKVEIK
B18: MAdCAM antibody Clone ID 46 of Table 7 (IgG) (antibody, V domains shown)
VH: EVQLLESGGGLVQPGGSLRLSCAASGFSFSSYTMNWVRQAPGKGLEWVSFITSSSRTIYYADSVKGRFTISRDNSKNTLYLQMNSLRAEDTAVYYCARDRRGDYGDSWYFDLWGRGTLVTVSS
VL: EIVMTQSPATLSVSPGERATLSCRASQSVRNYLAWYQQKPGQAPRLLIYGASTRATGIPARFSGSGSGTEFTLTISSLQSEDFAVYYCQQYGSSPLTFGGGTKVEIK
B19: MAdCAM antibody Clone ID 64 of Table 7 (IgG) (antibody, V domains shown)
VH: EVQLLESGGGLVQPGGSLRLSCAASGFTFSNSDMNWVRQAPGKGLEWVAHIWNDGSQKYYADSVKGRFTISRDNSKNTLYLQMNSLRAEDTAVYYCARDRTDPGYSSAMDVWGQGTTVTVSS
VL: DIQMTQSPSSLSASVGDRVTITCRASQDIRNYLGWYQQKPGKAPKLLIYDASSLETGVPSRFSGSGSGTDFTLTISSLQPEDFATYYCQQATSLPLTFGGGTKVEIK
B20: MAdCAM antibody Clone ID 21 of Table 6 (scFv) (scFv)
scFv: EVQLLESGGGLVQPGGSLRLSCAASGFTFSNAWMSWVRQAPGKGLEWVSTIVGNGGATYYADSVKGRFTISRDNSKNTLYLQMNSLRAEDTAVYYCARDNPLRWQGMDVWGQGTLVTVSSGGGGSGGGGSGGGGSGGGGSDIQMTQSPSSLSASVGDRVTITCRASQDISNYLNWYQQKPGKAPKLLIYAASSLQSGVPSRFSGSGSGTDFTLTISSLQPEDFATYYCQQSYSIPPTFGPGTKVDIK
B21: MAdCAM antibody Clone ID 8 of Table 6 (scFv) (scFv)
scFv: EVQLLESGGGLVQPGGSLRLSCAASGFMFGDYAMHWVRQAPGKGLEWVSAISGSGGSTYYADSVKGRFTISRDNSKNTLYLQMNSLRAEDTAVYYCAKDLVVAGIWYFDLWGRGTLVTVSSGGGGSGGGGSGGGGSGGGGSDIQMTQSPSSLSASVGDRVTITCRASQGISNNLNWYQQKPGKAPKLLIYDASSLESGVPSRFSGSGSGTDFTLTISSLQPEDFATYYCQQTHSFPSTFGQGTKLEIK

The target of this test is Cyno MAdCAM protein (cyno). Kind of test: ELISA. For orientation: In an ELISA, binding on a coated surface is turned into a signal by an enzyme label.
Regarding B1, the binding entry is “binds”. Next, B2: “binds”. Next, B3: “binds”; B4: “binds”. With B5, the binding entry is listed as “binds”. Next, B6: “binds”; B7: “binds”; B8: “binds”. Next, B9: “binds”; B10: “binds”; B11: “binds”. The same measure for B12: “binds”. Consider B13, for which the binding result is “binds”. The same measure for B14: “binds”.

As for B15, the binding entry is “binds”.

With B16, the binding result is on record as “binds”. The same measure for B17: “binds”; for B18: “binds”; for B19: “binds”.

With B20, the binding entry is on record as “binds”. Next, B21: “binds”.
